# PubChem BioAssay AID1508588, Peter MacCallum Cancer Centre | 2020
# Assay: 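Which gene losses make BRAF-mutant melanoma cells more responsive to vemurafenib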 (primary screen)
# System: human WM266.4 melanoma cells (BRAF V600 mutant)
# Reagent: siRNA pool against human genes, 40 nM
# Timing: 96 h from transfection to read-out
# Challenge: vemurafenib 300 nM (about IC25), added 48 h after transfection, for 48 h; comparison arm got DMSO vehicle only
# Measurement: 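Cell gain (DAPI nuclei at end minus before drug, mean of two replicates) and medium lactate by absorbance per cell, both as ratio to non-targeting siRNA, also grouped into fold-change classes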
# Reading the numbers: cell gain with vemurafenib: higher = more cell gain than with non-targeting siRNA; lactate per cell with vemurafenib: higher = more lactate made per cell
# Rule for the call: 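a knock-down counts as enhancing when its fold-change classes with vehicle and with vemurafenib, taken together, show a stronger drug effect on cell gain or lactate per cell; exact class pairs not stated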
# Calls: active = enhances vemurafenib effect; inactive = no enhancement seen
# This is one part, drawn at random, of about 18,000 reagents tested. Of all reagents, 790 (4.4%) were called active. 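Calls rest on a combination of fold-change classes in drug and vehicle arms, not all shown here.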 Reagents against one gene are numbered here. A reagent listed more than once was tested more than once; the source does not tell the runs apart.
Gene,reagent,cell gain with vemurafenib,lactate per cell with vemurafenib,Outcome
LRRTM1,1,0.07,0.92,inactive
UBXN8,1,0.45,1.55,inactive
ANGEL2,1,0.29,1.9,inactive
GNB2,1,0.59,0.79,inactive
UGDH,1,0.55,0.41,inactive
MCCC1,1,0.5,0.77,inactive
PDE4DIP,1,0.66,0.32,inactive
SLC35D3,1,0.33,1.15,inactive
ANKRD16,1,0.18,2.36,inactive
B4GALT4,1,0.79,0.78,inactive
NRG1,1,0.38,0.82,inactive
MYG1,1,0.46,1.52,inactive
GRK4,1,-0.05,1.75,inactive
NXNL2,1,0.51,1.64,inactive
DRC1,1,0.41,1.1,inactive
DNHD1,1,0.85,1.16,inactive
DNHD1,2,0.66,0.87,inactive
GAGE5,1,0.52,1.44,inactive
PDCD11,1,0.31,1.36,inactive
GRK1,1,0.58,1.08,inactive
GRK1,1,1.06,1.07,inactive
FCGR3A,1,-0.08,0.68,inactive
GP1BA,1,-0.01,4.3,inactive
CPM,1,0.24,1.83,inactive
NGDN,1,0.66,0.82,inactive
HEMK1,1,0.5,0.83,inactive
KLHDC10,1,0.55,0.41,inactive
ADGRL1,1,0.79,0.78,inactive
WFS1,1,0.65,0.93,inactive
TP53,1,1.16,0.2,inactive
SH2D1B,1,0.75,0.67,inactive
YAE1,1,0.49,1.98,inactive
SMIM14,1,-0.05,0.78,inactive
POU5F2,1,0.68,0.2,inactive
PLXNB1,1,0.55,1.58,inactive
CTSA,1,1.05,1.06,inactive
CAMK2B,1,0.68,1.52,inactive
KCTD10,1,0.3,1.42,inactive
KRTAP19-3,1,0.4,1.09,inactive
MTIF3,1,0.81,1.08,inactive
CHTOP,1,0.46,1.09,inactive
SLC7A8,1,0.9,1.4,inactive
SAXO5,1,0.41,1.16,inactive

Ordered by “lactate per cell with vemurafenib” (ascending): 9 of the entries above.
Gene,reagent,cell gain with vemurafenib,lactate per cell with vemurafenib,Outcome
POU5F2,1,0.68,0.2,inactive
SMIM14,1,-0.05,0.78,inactive
CTSA,1,1.05,1.06,inactive
MTIF3,1,0.81,1.08,inactive
KRTAP19-3,1,0.4,1.09,inactive
CHTOP,1,0.46,1.09,inactive
KCTD10,1,0.3,1.42,inactive
CAMK2B,1,0.68,1.52,inactive
PLXNB1,1,0.55,1.58,inactive

Further reagents follow.
Gene,reagent,cell gain with vemurafenib,lactate per cell with vemurafenib,Outcome
OTP,1,0.95,0.73,inactive
NSMCE2,1,0.25,1.37,inactive
MRTFA,1,0.6,1.13,inactive
HMGN5,1,0.65,1.05,inactive
NDST2,1,0.82,1.02,inactive
SFN,1,0.89,0.88,inactive
SUPV3L1,1,0.4,3.19,inactive
HLA-L,1,0.43,0.9,inactive
ITFG1,1,0.5,1.05,inactive
PTPRC,1,0.88,0.8,inactive
LCE3D,1,0.32,0.97,inactive
APLN,1,0.63,0.44,active
AFF1,1,0.24,1,inactive
LINC02870,1,0.44,2.04,inactive
GNB3,1,0.26,1.73,inactive
DDX39B,1,0.85,1.23,inactive
LARP6,1,0.4,2.57,inactive
ZNF446,1,0.56,1.22,inactive
ADGRG4,1,0.37,1.71,inactive
SLC5A7,1,0.47,0.67,inactive
LRRTM4,1,0.74,0.54,inactive
KIAA0753,1,0.84,0.9,inactive
TRIM2,1,1.01,0.8,inactive
TNNI3,1,0.83,0.88,inactive
APOOL,1,1.08,0.98,inactive
NLE1,1,0.52,1.38,inactive
NADSYN1,1,0.69,0.6,inactive
CNKSR3,1,0.75,0.65,inactive
FER1L6,1,0.75,0.84,inactive
CTBP1,1,0.73,1.45,inactive
CIMIP4,1,0.69,0.83,inactive
XKRY,1,0.5,1.1,inactive
ALDH1B1,1,0.27,1.3,inactive
SAR1A,1,1.08,1.4,inactive
TRPC5,1,0.58,0.2,inactive
SARDH,1,0.88,0.77,inactive
CCDC71L,1,0.54,0.2,active
NRAP,1,0.6,1.46,inactive
CUBN,1,0.8,0.84,inactive
TEX28,1,0.49,0.89,inactive
CFAP107,1,0.64,1.08,inactive
MRPL3,1,0.79,0.94,inactive
CAPN1,1,0.63,1.52,inactive
STIMATE,1,0.67,1.4,inactive
PJA2,1,0.93,0.62,inactive
GPR88,1,0.54,0.67,inactive
GRTP1,1,0.26,1.92,inactive
HAND1,1,0.85,0.94,inactive
SCPEP1,1,1.01,0.78,inactive
TM2D2,1,0.64,0.82,inactive
FNDC3B,1,0.46,1.54,inactive
MEDAG,1,0.83,0.88,inactive
RAI14,1,0.71,0.81,inactive
ULK4,1,0.52,0.68,inactive
FGD2,1,0.47,0.61,active
TRADD,1,0.4,1.27,inactive
USP21,1,0.18,0.4,inactive
UGT2A3,1,0.56,0.9,inactive
DAAM2,1,0.19,0.5,inactive
ATP23,1,0.89,1.14,inactive
SETD5,1,0.81,0.95,inactive
TIAM2,1,0.41,1.2,inactive
CRYBA1,1,0.88,0.9,inactive
DIPK1C,1,0.38,0.22,inactive
